These are yes or no findings as the source states them, for the method shown. Binding seen in cells or lysates may run through a third protein. Here binding means that the protein was enriched with, or labelled near, the bait; the list need not be complete.

By UniProt entry, the sequences of proteins in these tests, tags left out.
UniProt P0C746: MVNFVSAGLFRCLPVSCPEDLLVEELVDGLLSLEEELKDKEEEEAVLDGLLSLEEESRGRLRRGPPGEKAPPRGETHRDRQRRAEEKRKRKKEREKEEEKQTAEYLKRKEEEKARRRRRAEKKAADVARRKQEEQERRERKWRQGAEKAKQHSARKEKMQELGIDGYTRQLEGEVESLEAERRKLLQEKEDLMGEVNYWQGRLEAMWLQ
UniProt P13010: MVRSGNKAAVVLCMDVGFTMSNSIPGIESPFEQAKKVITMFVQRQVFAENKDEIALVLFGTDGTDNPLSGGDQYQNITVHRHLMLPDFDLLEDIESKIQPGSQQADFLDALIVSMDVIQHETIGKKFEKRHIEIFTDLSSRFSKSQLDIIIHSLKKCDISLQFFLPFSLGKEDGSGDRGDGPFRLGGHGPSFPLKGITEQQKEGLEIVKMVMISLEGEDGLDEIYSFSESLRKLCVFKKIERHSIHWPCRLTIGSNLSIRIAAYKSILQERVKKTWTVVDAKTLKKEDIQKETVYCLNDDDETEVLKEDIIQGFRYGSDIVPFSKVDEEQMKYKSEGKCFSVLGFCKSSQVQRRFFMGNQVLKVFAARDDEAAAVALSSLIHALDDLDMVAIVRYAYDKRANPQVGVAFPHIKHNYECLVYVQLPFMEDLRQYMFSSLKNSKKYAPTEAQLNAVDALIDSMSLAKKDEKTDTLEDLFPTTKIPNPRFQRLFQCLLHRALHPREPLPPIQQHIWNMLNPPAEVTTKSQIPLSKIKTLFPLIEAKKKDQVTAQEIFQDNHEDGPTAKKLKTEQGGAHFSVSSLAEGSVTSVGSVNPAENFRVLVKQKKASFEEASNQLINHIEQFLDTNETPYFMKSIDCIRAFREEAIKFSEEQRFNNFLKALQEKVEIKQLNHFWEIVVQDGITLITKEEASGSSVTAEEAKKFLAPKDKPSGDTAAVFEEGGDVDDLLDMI
UniProt P12956: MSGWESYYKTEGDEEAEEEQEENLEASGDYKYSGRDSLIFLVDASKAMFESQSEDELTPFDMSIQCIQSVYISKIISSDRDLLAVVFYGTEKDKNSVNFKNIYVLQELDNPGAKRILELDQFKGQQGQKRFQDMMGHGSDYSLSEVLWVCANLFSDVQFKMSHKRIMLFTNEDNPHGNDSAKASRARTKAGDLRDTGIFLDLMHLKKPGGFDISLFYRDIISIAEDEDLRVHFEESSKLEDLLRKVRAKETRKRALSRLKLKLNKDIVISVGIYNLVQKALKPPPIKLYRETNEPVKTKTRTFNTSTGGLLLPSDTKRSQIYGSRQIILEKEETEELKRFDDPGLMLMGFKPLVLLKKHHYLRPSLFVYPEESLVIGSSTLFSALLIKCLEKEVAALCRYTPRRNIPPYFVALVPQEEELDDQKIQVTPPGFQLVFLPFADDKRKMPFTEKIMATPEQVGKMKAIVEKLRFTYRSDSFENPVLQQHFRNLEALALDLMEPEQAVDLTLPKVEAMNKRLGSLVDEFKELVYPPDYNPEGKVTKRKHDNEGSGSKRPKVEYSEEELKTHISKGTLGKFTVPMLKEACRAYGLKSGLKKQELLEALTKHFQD
UniProt P67809: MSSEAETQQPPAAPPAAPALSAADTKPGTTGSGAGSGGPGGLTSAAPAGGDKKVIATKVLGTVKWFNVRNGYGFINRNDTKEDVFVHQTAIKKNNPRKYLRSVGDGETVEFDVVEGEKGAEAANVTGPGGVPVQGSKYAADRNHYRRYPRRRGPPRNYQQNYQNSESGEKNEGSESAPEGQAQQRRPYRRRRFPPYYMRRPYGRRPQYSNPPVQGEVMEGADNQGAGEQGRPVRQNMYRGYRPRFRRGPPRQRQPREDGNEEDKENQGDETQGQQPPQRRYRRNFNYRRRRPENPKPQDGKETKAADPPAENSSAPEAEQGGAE

The labels stand for the following.
B1: JunB (protein, UniProt P17275 1-347)
chain: MCTKMEQPFYHDDSYTATGYGRAPGGLSLHDYKLLKPSLAVNLADPYRSLKAPGARGPGPEGGGGGSYFSGQGSDTGASLKLASSELERLIVPNSNGVITTTPTPPGQYFYPRGGGSGGGAGGAGGGVTEEQEGFADGFVKALDDLHKMNHVTPPNVSLGATGGPPAGPGGVYAGPEPPPVYTNLSSYSPASASSGGAGAAVGTGSSYPTTTISYLPHAPPFAGGHPAQLGLGRGASTFKEEPQTVPEARSRDATPPVSPINMEDQERIKVERKRLRNRLAATKCRKRKLERIARLEDKVKTLKAENAGLSSTAGLLREQVAQLKQKVMTHVSNGCQLLLGVKGHAF
B2: JunD (protein, UniProt P17535 1-347)
chain: METPFYGDEALSGLGGGASGSGGSFASPGRLFPGAPPTAAAGSMMKKDALTLSLSEQVAAALKPAAAPPPTPLRADGAPSAAPPDGLLASPDLGLLKLASPELERLIIQSNGLVTTTPTSSQFLYPKVAASEEQEFAEGFVKALEDLHKQNQLGAGAAAAAAAAAAGGPSGTATGSAPPGELAPAAAAPEAPVYANLSSYAGGAGGAGGAATVAFAAEPVPFPPPPPPGALGPPRLAALKDEPQTVPDVPSFGESPPLSPIDMDTQERIKAERKRLRNRIAASKCRKRKLERISRLEEKVKTLKSQNTELASTASLLREQVAQLKQKVLSHVNSGCQLLPQHQVPAY
B3: ILF3 (protein, UniProt Q12906 1-894)
chain: MRPMRIFVNDDRHVMAKHSSVYPTQEELEAVQNMVSHTERALKAVSDWIDEQEKGSSEQAESDNMDVPPEDDSKEGAGEQKTEHMTRTLRGVMRVGLVAKGLLLKGDLDLELVLLCKEKPTTALLDKVADNLAIQLAAVTEDKYEILQSVDDAAIVIKNTKEPPLSLTIHLTSPVVREEMEKVLAGETLSVNDPPDVLDRQKCLAALASLRHAKWFQARANGLKSCVIVIRVLRDLCTRVPTWGPLRGWPLELLCEKSIGTANRPMGAGEALRRVLECLASGIVMPDGSGIYDPCEKEATDAIGHLDRQQREDITQSAQHALRLAAFGQLHKVLGMDPLPSKMPKKPKNENPVDYTVQIPPSTTYAITPMKRPMEEDGEEKSPSKKKKKIQKKEEKAEPPQAMNALMRLNQLKPGLQYKLVSQTGPVHAPIFTMSVEVDGNSFEASGPSKKTAKLHVAVKVLQDMGLPTGAEGRDSSKGEDSAEETEAKPAVVAPAPVVEAVSTPSAAFPSDATAEQGPILTKHGKNPVMELNEKRRGLKYELISETGGSHDKRFVMEVEVDGQKFQGAGSNKKVAKAYAALAALEKLFPDTPLALDANKKKRAPVPVRGGPKFAAKPHNPGFGMGGPMHNEVPPPPNLRGRGRGGSIRGRGRGRGFGGANHGGYMNAGAGYGSYGYGGNSATAGYSQFYSNGGHSGNASGGGGGGGGGSSGYGSYYQGDNYNSPVPPKHAGKKQPHGGQQKPSYGSGYQSHQGQQQSYNQSPYSNYGPPQGKQKGYNHGQGSYSYSNSYNSPGGGGGSDYNYESKFNYSGSGGRSGGNSYGSGGASYNPGSHGGYGGGSGGGSSYQGKQGGYSQSNYNSPGSGQNYSGPPSSYQSSQGGYGRNADHSMNYQYR

This assay has as its target S-tagged HBZ (HTLV-1 basic leucine zipper factor) (HTLV-1) (UniProt P0C746). Put plainly: affinity purification with mass spectrometry; S-tag affinity capture of S-tagged HBZ (and APH-2) from cell lysate, SDS-PAGE, in-gel trypsin, shotgun proteomics (Q Exactive, Mascot, Scaffold; probability >95%, minimum 2 peptides).
For XRCC5 (from UniProt P13010 1-732), the binding result is reported as “binds”.

Consider XRCC6 (from UniProt P12956 1-609), for which the binding result was “binds”.

Regarding “Y-box binding protein (YBX1) (from UniProt P67809 1-324)”, the binding entry is “binds”.

For the molecule B1, the binding result is recorded as “binds”.

For the molecule B2, the binding entry is “binds”.

In the case of B3, the binding entry was “binds”.
